Reference: article PMC7819943, “Rice protein-binding microarrays: a tool to detect cis-acting elements near promoter regions in rice”
The other results are listed elsewhere or left out.

Sequences of proteins named here, by UniProt entry; tags and fusion partners are left off.
UniProt Q0JBA9, entry or part of it: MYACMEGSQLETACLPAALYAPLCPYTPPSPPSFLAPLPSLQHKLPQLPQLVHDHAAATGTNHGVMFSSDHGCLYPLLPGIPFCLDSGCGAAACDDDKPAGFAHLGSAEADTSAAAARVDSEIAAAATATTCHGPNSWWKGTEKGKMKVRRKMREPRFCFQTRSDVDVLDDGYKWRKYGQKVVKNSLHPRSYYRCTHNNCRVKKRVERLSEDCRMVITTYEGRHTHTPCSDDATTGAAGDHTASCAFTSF

Target: OsWRKY34 (Oryza sativa, UniProt Q0JBA9 1-250)
Test: protein-binding microarray (RPBM); PBS, 2% BSA, 51.3 ng/ul salmon testes DNA, 50 uM zinc acetate, 200 nM TF, 25 C, 1 h; high values mean tight binding
Details: protein: recombinant; tags: N-terminal polyhistidine and DsRed monomer fusion (pET32a); label: CyDye5-dUTP incorporated in the synthesized complementary strand; 3' TTTTT single-stranded linker to array surface; dsDNA, one strand shown
Outline: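 Transcription factors were each fused at the N-terminus to a polyhistidine tag plus DsRed and expressed in E. coli BL21-CodonPlus before Ni–NTA purification. Binding to a double-stranded custom Agilent array was carried out with 200 nM protein at 25 °C for 1 h in PBS, 2% BSA, salmon testes DNA and 50 µM zinc acetate. The binding signal is per-feature fluorescence intensity, in arbitrary units, on an Axon 4000B scanner.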

Sequence	binding signal
CCCAGCTGCGTTTTTTTTAACCCCTCGCCCTTCTATAAATCGGAGTCACCTAGTGCAG	9250 fluorescence intensity (a.u.)
GCAACGTTTCTTGGCTCTGCTGTTGTCTCCCCGCTTTAATCGGAGTCACCTAGTGCAG	8750 fluorescence intensity (a.u.)
CCTAAATGTTTGACTCCGTTGACTTTTTTAAACATGTCTGCGGAGTCACCTAGTGCAG	26100 fluorescence intensity (a.u.)
TCTGTTCTCTTGTGCATTCTGTTTTTTCTAATCGTACACCCGGAGTCACCTAGTGCAG	10700 fluorescence intensity (a.u.)
ACACACATGATCCGGCTTCCAATCAACACGATCCAAACCCCGGAGTCACCTAGTGCAG	8410 fluorescence intensity (a.u.)
CACCCCTATCTGCTACATTACTACTCCCTCCGTCCCATAACGGAGTCACCTAGTGCAG	8930 fluorescence intensity (a.u.)
AACACAGATCACCCAAATATGCGACTACTGTTGAAGTCTTCGGAGTCACCTAGTGCAG	8160 fluorescence intensity (a.u.)
GATCCGACCAACTCACCACCACCCGCAGCGCCGCCACCGGCGGAGTCACCTAGTGCAG	8160 fluorescence intensity (a.u.)
CTTCTCCTTTTCGATCAATCAGTCTCTTTCTCTTTGTCATCGGAGTCACCTAGTGCAG	8370 fluorescence intensity (a.u.)
AGTCCATGTATGTTCGCTACTTCGCTTGCGTCTCGACAACCGGAGTCACCTAGTGCAG	11200 fluorescence intensity (a.u.)
TTTTTATTAGTGCCCGAACATCCCATGCGATACCCTATGTCGGAGTCACCTAGTGCAG	9260 fluorescence intensity (a.u.)
AAACCTTCCGTATTGCCTATGAGACAGGTTAGTTATCCTCCGGAGTCACCTAGTGCAG	8320 fluorescence intensity (a.u.)
TTGGAGCGGTTTTGTCTTCTCGCACAGGCATGTTGGAGCTCGGAGTCACCTAGTGCAG	11000 fluorescence intensity (a.u.)
TTTCTTTCAACAATTCAACACAACACACTACCCTGTCTTTCGGAGTCACCTAGTGCAG	8040 fluorescence intensity (a.u.)
CGCCATTTTACGCCTCACTCTCCTCCTCCACCTCCACCACCGGAGTCACCTAGTGCAG	9840 fluorescence intensity (a.u.)
TACTCCTAGTCCAGTTTTTATGCACTAATGAATTTCTCTACGGAGTCACCTAGTGCAG	8350 fluorescence intensity (a.u.)
CTCCTCTTCGTCTCCATCGCCATCCACCGCGCCGTCGCCCCGGAGTCACCTAGTGCAG	8070 fluorescence intensity (a.u.)
CCTGCAAGCCTCTGCCTCAACCACCACATCCCAGCCGCCACGGAGTCACCTAGTGCAG	9000 fluorescence intensity (a.u.)
ATTACTTTCTGTTATTTATGTATTTGGAGTTTTGTTTGTACGGAGTCACCTAGTGCAG	9390 fluorescence intensity (a.u.)
TCCTCGCGTACTGTTTTATTGGTCTATCCGCGATCAGTGGCGGAGTCACCTAGTGCAG	8290 fluorescence intensity (a.u.)
GAGGGATGATCCATTTTGACTAGCACAGTCTCTTGCCCCTCGGAGTCACCTAGTGCAG	8410 fluorescence intensity (a.u.)

Sequence	binding signal
CATTCCCCTGCCAGATCCAACGCCATTGGTCAACGACCTGCGGAGTCACCTAGTGCAG	8430 fluorescence intensity (a.u.)
CGATTATTTCACTAGAGGCAACCATACTGCTACCAAATCCCGGAGTCACCTAGTGCAG	10200 fluorescence intensity (a.u.)
CCGTAATTATTTTTTCTTTGACCGTGTCGTGCCGGCTAACCGGAGTCACCTAGTGCAG	10700 fluorescence intensity (a.u.)
CGTCCAACCCACAACCTTCGTCCGCACACGTTTCCCGATACGGAGTCACCTAGTGCAG	8330 fluorescence intensity (a.u.)
CGTCTCCTCCGCTTTTTGCTTCGCCATTTGATTTTTTTGCCGGAGTCACCTAGTGCAG	8620 fluorescence intensity (a.u.)
TAGCTCGTGCCTGTCTGGTCCGGCCAGCCCTGCGTTCCCGCGGAGTCACCTAGTGCAG	8890 fluorescence intensity (a.u.)
TACATCATTCCAAATATTGTTAAATTTAAAGTTCATCCATCGGAGTCACCTAGTGCAG	8580 fluorescence intensity (a.u.)
CTTGTGTTGGCTGTTGTTGTGTGTGTGCTGTCGTTTTCTTCGGAGTCACCTAGTGCAG	9340 fluorescence intensity (a.u.)
CCCCTTCTCACACTATACCGATACTCCAATATTTCTTTTCCGGAGTCACCTAGTGCAG	9770 fluorescence intensity (a.u.)
GTTCCACCCCTCGCCGCCGCCGGCTTCCTCTGGGCCCTCTCGGAGTCACCTAGTGCAG	11700 fluorescence intensity (a.u.)
CTGTGCCAGGGAGAGAGGTTTCATTCCTTTTTATGTGTTTCGGAGTCACCTAGTGCAG	9400 fluorescence intensity (a.u.)
TCTCTCTGCGACAGCCATCGCCACCGACTTCTTCGTCTTCCGGAGTCACCTAGTGCAG	8520 fluorescence intensity (a.u.)
TATTCCTTATTTTTTAATTCCGAATTTCAGCTATTTCTAACGGAGTCACCTAGTGCAG	11000 fluorescence intensity (a.u.)
GTGTCATGTCGTGCTTGGGTCGGGCCGTCGGGCCTCGAGACGGAGTCACCTAGTGCAG	10900 fluorescence intensity (a.u.)
AGACACCTACTCCTACTAGTACTAGTACTACCACCATCTCCGGAGTCACCTAGTGCAG	9060 fluorescence intensity (a.u.)
CCCAGTTTTTGCACTAGTTTAGCATTAGTACTTAATTTCACGGAGTCACCTAGTGCAG	8280 fluorescence intensity (a.u.)
CGCTGATCTCCAGTTCTCTAACATTCTACCTCTTCCAGGTCGGAGTCACCTAGTGCAG	8440 fluorescence intensity (a.u.)
GATAATATGTTTGTTTTGTATTGCAAATATTGTTATATTTCGGAGTCACCTAGTGCAG	8720 fluorescence intensity (a.u.)
ATCCACTCCATCGCCGCCGATGCTCAGCTCGCTACTCGTCCGGAGTCACCTAGTGCAG	8930 fluorescence intensity (a.u.)
TCTTACTCTGATGTTTGCTTGGTTTGCTTTGCGTTTTCTTCGGAGTCACCTAGTGCAG	14600 fluorescence intensity (a.u.)
CTTTGTGATTAATTAATGTGCAACATAGTTTGGTTAATTCCGGAGTCACCTAGTGCAG	8320 fluorescence intensity (a.u.)

4 successive entries from above, quoted:
Sequence	binding signal
GAGGGATGATCCATTTTGACTAGCACAGTCTCTTGCCCCTCGGAGTCACCTAGTGCAG	8410 fluorescence intensity (a.u.)
CATTCCCCTGCCAGATCCAACGCCATTGGTCAACGACCTGCGGAGTCACCTAGTGCAG	8430 fluorescence intensity (a.u.)
CGATTATTTCACTAGAGGCAACCATACTGCTACCAAATCCCGGAGTCACCTAGTGCAG	10200 fluorescence intensity (a.u.)
CCGTAATTATTTTTTCTTTGACCGTGTCGTGCCGGCTAACCGGAGTCACCTAGTGCAG	10700 fluorescence intensity (a.u.)

Going on with the list:

Sequence	binding signal
TAACCTATCGCAGTTGCTTTTGTTAATCTATGCACTTCACCGGAGTCACCTAGTGCAG	8330 fluorescence intensity (a.u.)
GACGCTGATCCCGCCTGTCCCACCTGTCCACCACGCCGCGCGGAGTCACCTAGTGCAG	8530 fluorescence intensity (a.u.)
ACTGTTCATTGTTGATGGCCTTTTCCAAAAACTAGAAAAGCGGAGTCACCTAGTGCAG	8460 fluorescence intensity (a.u.)
CCGTTCTATATTATACTCCCTCCGTTCTTAGATATTTGACCGGAGTCACCTAGTGCAG	10300 fluorescence intensity (a.u.)
ATGCAGTCGTGTGTTTCTATATCCAACGTTTGACTATCTTCGGAGTCACCTAGTGCAG	11800 fluorescence intensity (a.u.)
AACCTCCCCACCTCACGCGTCTGCCACTCCGGCGAGATATCGGAGTCACCTAGTGCAG	8560 fluorescence intensity (a.u.)
ATTTGGTTCAGTGATTGTTTCTTGCCCTGTGATTGTCCCACGGAGTCACCTAGTGCAG	10100 fluorescence intensity (a.u.)
CTCCTCCTCTCTTCCCTTTCACTTGGCCGTCGTCTCCTCCCGGAGTCACCTAGTGCAG	9320 fluorescence intensity (a.u.)
CACCATAGATGTCCACGACATTTACTTCTCGTTTGCTCTACGGAGTCACCTAGTGCAG	8900 ± 499 fluorescence intensity (a.u.)
ATGGTAAAACATGTGATAAAAAGTCAACGGCGGTCAAACACGGAGTCACCTAGTGCAG	13000 fluorescence intensity (a.u.)
CTCTGTCTCTTGCTCTCACGCACTGTGTTCTTCGTTTTCTCGGAGTCACCTAGTGCAG	13500 fluorescence intensity (a.u.)
GGTAATGAGAACGAACGCCACCGCGACCACACACAGAACCCGGAGTCACCTAGTGCAG	8280 fluorescence intensity (a.u.)
GCTTTTCTCTACTACCTTTTCCACTGTTGCGAAGTCGGGTCGGAGTCACCTAGTGCAG	8310 fluorescence intensity (a.u.)
TTTGTCCCGTGGTTTTTCATTCCTTACACTGAGAAGGTTTCGGAGTCACCTAGTGCAG	8790 fluorescence intensity (a.u.)
CTCCATGACTAATCCTCTTCTCTCTTTTTGTTGTCTTTATCGGAGTCACCTAGTGCAG	8180 fluorescence intensity (a.u.)
CGTTCTTCACCGAGCTCTTCACGTGTTCTTCGTGTTCTTGCGGAGTCACCTAGTGCAG	9550 fluorescence intensity (a.u.)
CTCTCGAACACGTGGCTTTGTCTCATCTCTTAGATCTTCACGGAGTCACCTAGTGCAG	13900 fluorescence intensity (a.u.)
TGGTGTGCTTCTTCACTGTCGCCATGTCGCAATGCGCGGCCGGAGTCACCTAGTGCAG	9590 fluorescence intensity (a.u.)
GTTGGGGAGCGGGGTGTGTGTGCCAGGCGCTCGGGCGGGGCGGAGTCACCTAGTGCAG	19500 fluorescence intensity (a.u.)
CGCAAGACCACGACTCAACTAGTTTATTCTTCCAATCTTTCGGAGTCACCTAGTGCAG	8610 fluorescence intensity (a.u.)
GGTTATGTCTCTGTTGCTGTTTAATTTGCTGATGTCTCTGCGGAGTCACCTAGTGCAG	12800 fluorescence intensity (a.u.)

2 entries from above, bar-delimited.
Sequence | binding signal
CTTCTCCTTTTCGATCAATCAGTCTCTTTCTCTTTGTCATCGGAGTCACCTAGTGCAG | 8370 fluorescence intensity (a.u.)
AGTCCATGTATGTTCGCTACTTCGCTTGCGTCTCGACAACCGGAGTCACCTAGTGCAG | 11200 fluorescence intensity (a.u.)

(list continues)

Sequence	binding signal
CCATCAGCATATAGTTCTATTCTATACACTTTCTTCATCCCGGAGTCACCTAGTGCAG	9300 fluorescence intensity (a.u.)
AGTTTCGTTCTCCTTCGCTCGCATTGCTGGTTGGGGTTCGCGGAGTCACCTAGTGCAG	10100 fluorescence intensity (a.u.)
ACCGAAATTTTGTTCTGTTGTTACTATTGGTAGTTAGTTTCGGAGTCACCTAGTGCAG	12000 fluorescence intensity (a.u.)
GACTTCCGAGCCACCGTCGTCCCTCGCTAACTTCGCATCACGGAGTCACCTAGTGCAG	10500 fluorescence intensity (a.u.)
TCGGTCTCTCGCCCCGCGCCCTCACGTTGTCACGTACAAACGGAGTCACCTAGTGCAG	10500 fluorescence intensity (a.u.)
TATTTTTTTCCGCCACGCGCTCGAGACTTTGCTTCTTTCACGGAGTCACCTAGTGCAG	14700 fluorescence intensity (a.u.)
TGTTAGGTTGGTTTTTTATTTTTTTTATTGTTTTTTTTACCGGAGTCACCTAGTGCAG	11900 fluorescence intensity (a.u.)
ACGGTGTTGCTGCTTGTATTTGTGTCTGTGTGTGTGTTTTCGGAGTCACCTAGTGCAG	10100 fluorescence intensity (a.u.)
ACTACCACCACCACCACCACCACCTGCTTCCTCCGCGGCTCGGAGTCACCTAGTGCAG	9640 fluorescence intensity (a.u.)
GACATGTGTTCGTTGTGTTTAAACTAGGAATCGGCGATACCGGAGTCACCTAGTGCAG	8400 fluorescence intensity (a.u.)
TCGCACATCGCTTCACGTAATCTACCGTAAATGTACTTTCCGGAGTCACCTAGTGCAG	8200 fluorescence intensity (a.u.)
CATGCCGGGCGGTCAATTTGACCATCTATATACCTTCGGTCGGAGTCACCTAGTGCAG	10500 fluorescence intensity (a.u.)
AGGGCATGTATCTTCAAAAAAGGTTTTCAAATTTGATTCTCGGAGTCACCTAGTGCAG	9240 fluorescence intensity (a.u.)
ATCCCGTTTTAGGCACAGCCTAAGTCTCTGTCAACATCCTCGGAGTCACCTAGTGCAG	8100 fluorescence intensity (a.u.)
GCTTGACTTCTTCATTCCTCAATCTCCTAACAACCATCACCGGAGTCACCTAGTGCAG	9230 fluorescence intensity (a.u.)
AACGGGGCTTTTAACTATTTATCACTTGTAGATTTGGCAACGGAGTCACCTAGTGCAG	8640 fluorescence intensity (a.u.)
CATATCATGGTAGACCATTTCTTGACTACATCTTAGCTCTCGGAGTCACCTAGTGCAG	12600 fluorescence intensity (a.u.)
CGCCGGAGCCGCCTCACCCTACCCGCCGCTGCCTGCTTCCCGGAGTCACCTAGTGCAG	8350 fluorescence intensity (a.u.)
GGGTGAGTGTGTGTTGTGCGTTGTGAGTGTGTATGTGTTTCGGAGTCACCTAGTGCAG	17200 fluorescence intensity (a.u.)
TGAATCTTCTTGTGTTGTCTTGTGCGGGTCATTCAGAAAACGGAGTCACCTAGTGCAG	11500 fluorescence intensity (a.u.)
GCATATCCTTCTCATTGTCTGCACATATTCTTATCAAATACGGAGTCACCTAGTGCAG	15100 fluorescence intensity (a.u.)
